We go through 1 molecule from article PMC3566133, “Molecular Analysis of the Prostacyclin Receptor’s Interaction with the PDZ1 Domain of Its Adaptor Protein PDZK1” (PLoS ONE, 2013).

No constants are given. Whether binding was seen depends on the method and setting.

The assay concerns the target T1, recombinant full-length PDZK1 (mouse, UniProt Q9JIL4 1-519).
T1 construct: PDZK1, full length, with PDZ1-PDZ4; source: recombinant, purified
T1 sequence (looked up): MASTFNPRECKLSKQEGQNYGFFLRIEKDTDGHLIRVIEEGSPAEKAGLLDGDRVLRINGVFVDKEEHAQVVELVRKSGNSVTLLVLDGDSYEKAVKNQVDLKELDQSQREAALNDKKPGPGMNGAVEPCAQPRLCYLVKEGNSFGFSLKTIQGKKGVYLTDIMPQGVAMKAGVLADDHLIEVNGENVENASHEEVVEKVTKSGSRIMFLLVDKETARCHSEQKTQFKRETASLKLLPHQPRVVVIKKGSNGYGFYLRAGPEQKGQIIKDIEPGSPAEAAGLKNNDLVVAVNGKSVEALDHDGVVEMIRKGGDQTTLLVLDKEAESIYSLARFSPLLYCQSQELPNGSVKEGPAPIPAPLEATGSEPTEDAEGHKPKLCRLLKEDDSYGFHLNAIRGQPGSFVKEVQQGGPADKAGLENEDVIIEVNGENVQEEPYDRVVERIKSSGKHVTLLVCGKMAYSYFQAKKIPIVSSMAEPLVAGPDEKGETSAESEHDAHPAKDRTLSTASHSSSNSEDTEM
Nature of the assay: condition: 1.0 mM peptide titrated against 0.03 mM protein; ITC; 1.0 mM peptide injected in 10 µl aliquots into 0.03 mM PDZ1 or full length PDZK1 in the cell; 150 mM NaCl, 25 mM Tris pH 8.0, 0.5 mM TCEP, 20°C; VP-ITC; both purified.

B1: Peptide 2 (K407SEAIAAC414), carboxy-terminus of IP devoid of the three terminal amino acids SLC (peptide)
peptide: KSEAIAAC
As for B1, the binding result is given as “no binding”.
